# Experimental data taken from EP1790655B1, “Biologically active peptides” (CMS Peptides Patent Holding Company Limited, priority 2001, dated 2003).
# Where two headings read alike, the source gives them in different places. Part of at least one peptide drawing is inferred or uncertain, most often the ends. Marks after values point to notes of the source that are not given here. Residues, ends and D or L forms follow the SMILES beside them.
# Tests used:
# mononuclear phagocyte = assay: carbon particle clearance test, phagocytosis function of mononuclear phagocyte; format: in vivo, BALB/c Mice; conditions: IFN-γ, IL-2 3×10^5IU/kg/day, X±SD
# B16 melanoma = assay: lung metastasis of inoculated B16 melanoma cells, postmortem examination; format: in vivo, C57BL/6 mice; conditions: after the ending of treatment
# anti-SRBC antibody = assay: Sheep Red Blood Cell (SRBC) hemolysis test, antibody formation; format: in vivo, BALB/c mice; conditions: IFN-γ, IL-2 3×10^5IU/kg/day, SRBC i.p. on day 12, X±SD
# NK cell [1] = assay: NK cell cytotoxicity activity test (spleen cells against YAC-1 target cells, MTT) after in vivo dosing; parameters: species or system BALB/c Mice; conditions: IFN-γ, IL-2 3×10^5IU/kg/day, X±SD
# thymus gland = assay: immunity organ weight test, thymus gland; format: in vivo, BALB/c Mice; conditions: IFN-γ, IL-2 3×10^5IU/kg/day, X±SD
# T lymphocyte [2] = assay: T lymphocyte transformation test (ConA-stimulated spleen cells, MTT) after in vivo dosing of healthy mice; parameters: species or system BALB/c Mice; conditions: IFN-γ, IL-2 3×10^5IU/kg/day, X±SD
# [3] = test system: Sheep red blood cells (SRBC); assay: humoral immunity (SRBC hemolysis index) of mice bearing transplanted B16 melanoma; format: in vivo, C57BL/6 mice; conditions: 30 days, SRBC on the 27th day
# [4] = test system: secretion of interleukin-2 (IL-2) by T lymphocytes; assay: T lymphocyte IL-2 secretion test (HT-2 cell bioassay of spleen cell supernatant); format: in vivo, BALB/c Mice; conditions: IFN-γ, IL-2 3×10^5IU/kg/day, X±SD
# S180 sarcoma cells = assay: growth of transplanted S180 sarcoma in mice; format: in vivo, BALB/c mice; conditions: for Tumor weight: started 5 days before transplanting, 30 days
# [5] = test system: Masugi nephritis rat model; conditions: for urine protein level: 24 hours urine
# spleen = assay: immunity organ weight test, spleen; format: in vivo, BALB/c Mice; conditions: peptide 500µg/kg/day i.p. once per day for 15 days; X±SD
# NK cell [6] = assay: NK cell activity in mice with ascitic fluid type liver cancer H22; format: in vivo, BALB/c mice; conditions: 15 days after implantation of H22
# T lymphocyte [7] = assay: T lymphocyte transformation in mice with ascitic fluid type liver cancer H22; format: in vivo, BALB/c mice; conditions: 15 days after implantation of H22
# [8] = peptide 5µg/kg/day i.p. once per day for 15 days
# [9] = peptide 500µg/kg/day i.p. once per day for 15 days
# [10] = peptide 0.5µg/kg/day i.p. once per day for 15 days
# [11] = peptide 50µg/kg/day i.p. once per day for 15 days
# [12] = after three weeks of treatment, peptides 50µg/kg/day, hydrocortisone 3.3mg/kg/day (halved after first week) i.p.
Compound,phagocytotic index (mononuclear phagocyte; [8]),Sample serum index (anti-SRBC antibody formation) (anti-SRBC antibody; [8]),Sample serum index (anti-SRBC antibody formation) (anti-SRBC antibody; [9]),Thymus gland index (thymus weight/body weight) (thymus gland; [11]),Thymus gland index (thymus weight/body weight) (thymus gland; [9]),Hemolysis index ([3]; 0.5µg/kg i.p. once per day),Hemolysis index ([3]; 5µg/kg i.p. once per day),Hemolysis index ([3]; 50µg/kg i.p. once per day),Hemolysis index ([3]; 500µg/kg i.p. once per day),Sample serum index (anti-SRBC antibody formation) (anti-SRBC antibody; [10]),Thymus gland index (thymus weight/body weight) (thymus gland; [8]),NK cell activity index (NK cell [1]; [9]),Stimulation index (T lymphocyte [7]; 0.5µg/kg i.p. once per day),also measured
CC(C)C[C@H](NC(=O)[C@H](C)NC(=O)CNC(=O)[C@@H]1CCCN1C(=O)[C@H](CC(C)C)NC(=O)[C@H](CC(=O)O)NC(=O)[C@H](CC(=O)O)NC(=O)[C@H](CC(C)C)NC(=O)[C@H](Cc1c[nH]cn1)NC(=O)CNC(=O)[C@@H](NC(=O)[C@H](C)NC(=O)[C@@H](N)CCCCN)C(C)C)C(=O)O [CMS008] (H-KAVGHLDDLPGAL-OH),6.4±0.5,97±26*^@ Unit,82±15*^@ Unit,0.20±0.04*^@^ %,0.21±0.03*^@^ %,42.7±18.4*^$,38.9±12.0*^$,37.1±16.7*^$,50.1±17.8*^$,–,–,–,–,phagocytotic index (mononuclear phagocyte; [9]): 6.5±1.2; B16 metastatic foci in the lung (postmortem examination) (B16 melanoma; 0.5µg/kg/day i.p.): did not show any sign of existance of B16 metastatic foci in the lung; B16 metastatic foci in the lung (postmortem examination) (B16 melanoma; 5µg/kg/day i.p.): did not show any sign of existance of B16 metastatic foci in the lung; B16 metastatic foci in the lung (postmortem examination) (B16 melanoma; 50µg/kg/day i.p.): did not show any sign of existance of B16 metastatic foci in the lung; NK cell activity index (NK cell [1]; [10]): 46±12 %; NK cell activity index (NK cell [1]; [8]): 92±4*^@^ %; Thymus gland index (thymus weight/body weight) (thymus gland; [10]): 0.22±0.07*^ %; stimulation index (T lymphocyte transformation) (T lymphocyte [2]; [10]): 1.7±0.3; stimulation index (T lymphocyte transformation) (T lymphocyte [2]; [9]): 1.7±0.1
CC(C)C[C@H](NC(=O)[C@H](CC(C)C)NC(=O)[C@@H](NC(=O)[C@@H]1CCCN1C(=O)[C@H](Cc1c[nH]cn1)NC(=O)[C@H](CCC(=O)O)NC(=O)[C@H](CCC(=O)O)NC(=O)[C@@H]1CCCN1C(=O)[C@H](C)NC(=O)[C@@H](N)C(C)C)[C@@H](C)O)C(=O)N[C@H](C(=O)N[C@@H](CCC(=O)O)C(=O)N[C@@H](C)C(=O)N1CCC[C@H]1C(=O)N[C@@H](CC(C)C)C(=O)N[C@@H](CC(N)=O)C(=O)N1CCC[C@H]1C(=O)N[C@@H](CCCCN)C(=O)O)[C@@H](C)O [CMS010] (H-VAPEEHPTLLTEAPLNPK-OH),–,–,–,–,–,–,–,–,–,–,–,–,–,"Sample IL-2 activity (T lymphocyte secreting IL-2) [4, 10]: 66±11 IU; Sample IL-2 activity (T lymphocyte secreting IL-2) [4, 9]: 125±17*^@^ IU; Tumor weight (S180 sarcoma cells; 500µg/kg i.p. once per day): 0.67 ± 0.35 g"
CC(C)[C@H](NC(=O)[C@H](CO)NC(=O)[C@@H]1CCCN1C(=O)[C@H](CC(N)=O)NC(=O)[C@H](Cc1ccccc1)NC(=O)[C@H](CC(=O)O)NC(=O)[C@H](CC(=O)O)NC(=O)[C@@H]1CCCN1C(=O)[C@H](Cc1c[nH]cn1)NC(=O)[C@H](Cc1c[nH]cn1)NC(=O)[C@H](C)NC(=O)[C@H](C)N)C(=O)O [CMS014] (H-AAHHPDDFNPSV-OH),–,–,130±24*^@^ Unit,0.21±0.02*^@^ %,–,–,–,–,–,15±6 Unit,0.23±0.06*^ %,–,–,"urine protein level ([5]; Week 1, peptides 50µg/kg/day, hydrocortisone 3.3mg/kg/day i.p. once per day): 5.5 ± 4.0 mg; urine protein level ([5]; Week 2, peptides 50µg/kg/day i.p. once per day, hydrocortisone 3.3mg/kg/day, dose halved after the first week): 6.3 ± 6.8 mg; urine protein level ([5]; Week 3, peptides 50µg/kg/day i.p. once per day, hydrocortisone 3.3mg/kg/day, dose halved after the first week): 2.8 ± 1.9 mg; Serum creatinine level [5, 12]: 159 ± 1 µmol/L; spleen index (mean spleen weight / mean body weight) [5, 12]: 3.6±1.3 x10-3; renal pathological microscopic examination ([5]; peptides 50µg/kg/day i.p. for 3 weeks, 6 heaviest kidneys per group): only one rat showed signs of fibrous tissue formation in the glomerular capsule and hyperplasia of the glomerular epithelium; Spleen index (spleen weight/body weight) (spleen): 0.40±0.03 %; Thymus gland index (thymus weight/body weight) (thymus gland; [10]): 0.20±0.04 %; stimulation index (T lymphocyte transformation) (T lymphocyte [2]; [11]): 1.0±0.1; NK activity index (NK cell [6]; 0.5µg/kg i.p. once per day): 40.7±19.7*^$ %"
CC[C@H](C)[C@H](N)C(=O)NCC(=O)N[C@@H](CCSC)C(=O)N[C@@H](CCC(=O)O)C(=O)N[C@@H](CO)C(=O)N[C@@H](C)C(=O)NCC(=O)N[C@H](C(=O)N[C@@H](Cc1c[nH]cn1)C(=O)N[C@@H](CCC(=O)O)C(=O)N[C@H](C(=O)N[C@H](C(=O)N[C@@H](Cc1ccc(O)cc1)C(=O)O)[C@@H](C)O)[C@@H](C)O)[C@@H](C)CC [CMS016] (H-IGMESAGIHETTY-OH),6.9±0.8*^,93±32*^@ Unit,143±38*^@^ Unit,–,0.18±0.05 %,–,–,–,43.3±29.9,–,0.22±0.06 %,91±7*^@^ %,–,B16 metastatic foci in the lung (postmortem examination) (B16 melanoma; 5µg/kg/day i.p.): did not show any sign of existance of B16 metastatic foci in the lung; B16 metastatic foci in the lung (postmortem examination) (B16 melanoma; 500µg/kg/day i.p.): did not show any sign of existance of B16 metastatic foci in the lung
CSCC[C@H](NC(=O)CNC(=O)[C@@H](N)C(C)C)C(=O)NCC(=O)N[C@@H](CCC(N)=O)C(=O)N[C@@H](CCCCN)C(=O)N[C@@H](CC(=O)O)C(=O)N[C@@H](CO)C(=O)N[C@@H](Cc1ccc(O)cc1)C(=O)O [CMS019] (H-VGMGQKDSY-OH),6.8±0.6*^,118±20*^@^ Unit,91±26*^@ Unit,0.20±0.03*^@^ %,0.19±0.02 %,42.0±12.0*^$,35.4±15.1*^$,28.3±7.6,–,12±3 Unit,0.24±0.02*^@^ %,–,1.50±0.19*^$,phagocytotic index (mononuclear phagocyte; [11]): 6.7±0.9*^; stimulation index (T lymphocyte transformation) (T lymphocyte [2]; [9]): 1.8±0.3
"CC(C)C[C@H](NC(=O)[C@H](CO)NC(=O)[C@@H](N)Cc1ccc(O)cc1)C(=O)O [CMS024, Tyr Ser Leu] (H-Tyr-Ser-Leu-OH)",–,171±39*^@^ Unit,75±29*^@ Unit,0.27±0.02*^@^ %,–,43.0±10.7*^$,42.2±11.8*^$,27.8±9.1,30.1±10.0,98±6*^@^ Unit,0.23±0.06*^ %,89±8 %,1.46±0.19*^$,phagocytotic index (mononuclear phagocyte; [10]): 6.7±0.5*^; phagocytotic index (mononuclear phagocyte; [11]): 6.6±0.7; phagocytotic index (mononuclear phagocyte; [9]): 6.4±1.0; Stimulation index (T lymphocyte [7]; 5µg/kg i.p. once per day): 1.45±0.21*^$; NK cell activity index (NK cell [1]; [8]): 78±3 %; NK activity index (NK cell [6]; 0.5µg/kg i.p. once per day): 39.3±18.7*^$ %; NK activity index (NK cell [6]; 5µg/kg i.p. once per day): 34.9±12.1*^^$ %; NK activity index (NK cell [6]; 50µg/kg i.p. once per day): 43.6±13.9*^^$& %
"CC(C)[C@H](NC(=O)[C@@H](N)Cc1ccccc1)C(=O)N[C@@H](CC(N)=O)C(=O)N[C@@H](CC(=O)O)C(=O)O [CMS035, Phe Val Asn Asp] (H-FVND-OH)",6.9±0.9*^,176139*^@^ Unit,88±16*^@ Unit,–,0.21±0.03*^@^ %,–,38.9±21.2*^$,44.7±22.7*^$,40.5±25.8,–,0.21±0.04 %,90±10 %,1.40±0.13*^$,"Stimulation index (T lymphocyte [7]; 5µg/kg i.p. once per day): 1.46±0.16*^$; Sample serum index (anti-SRBC antibody formation) (anti-SRBC antibody; [11]): 97±10*^@^ Unit; Tumor weight (S180 sarcoma cells; 5µg/kg i.p. once per day): 0.71 ± 0.37 g; Tumor inhibition index (S180 sarcoma cells; 5µg/kg i.p. once per day, versus saline group): 44.6%; NK cell activity index (NK cell [1]; [10]): 76±10 %; NK cell activity index (NK cell [1]; [11]): 72±9 %"
